Reference: article PMC11343471
No constants are given. Whether binding was seen depends on the method and setting. Binding seen in cells or lysates may run through a third protein. Here binding means that the protein was enriched with, or labelled near, the bait; the list need not be complete. Tags and fused reporters may be left off the sequences shown.

Protein sequences, listed by entry. Tags and fused reporters are not part of them. Residues count along the entry.
UniProt P63208: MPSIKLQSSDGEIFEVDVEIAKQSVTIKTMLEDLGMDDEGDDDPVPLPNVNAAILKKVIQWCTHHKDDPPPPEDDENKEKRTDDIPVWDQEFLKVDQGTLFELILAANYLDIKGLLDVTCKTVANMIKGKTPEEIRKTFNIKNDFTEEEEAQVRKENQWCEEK
UniProt Q15843, residues 1-76: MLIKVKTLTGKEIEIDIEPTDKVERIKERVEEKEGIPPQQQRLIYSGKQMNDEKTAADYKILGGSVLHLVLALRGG

T1: FH-ER-SAMD1 (FLAG-HA-ER-tagged SAMD1) (UniProt Q6SPF0)
T1 sequence: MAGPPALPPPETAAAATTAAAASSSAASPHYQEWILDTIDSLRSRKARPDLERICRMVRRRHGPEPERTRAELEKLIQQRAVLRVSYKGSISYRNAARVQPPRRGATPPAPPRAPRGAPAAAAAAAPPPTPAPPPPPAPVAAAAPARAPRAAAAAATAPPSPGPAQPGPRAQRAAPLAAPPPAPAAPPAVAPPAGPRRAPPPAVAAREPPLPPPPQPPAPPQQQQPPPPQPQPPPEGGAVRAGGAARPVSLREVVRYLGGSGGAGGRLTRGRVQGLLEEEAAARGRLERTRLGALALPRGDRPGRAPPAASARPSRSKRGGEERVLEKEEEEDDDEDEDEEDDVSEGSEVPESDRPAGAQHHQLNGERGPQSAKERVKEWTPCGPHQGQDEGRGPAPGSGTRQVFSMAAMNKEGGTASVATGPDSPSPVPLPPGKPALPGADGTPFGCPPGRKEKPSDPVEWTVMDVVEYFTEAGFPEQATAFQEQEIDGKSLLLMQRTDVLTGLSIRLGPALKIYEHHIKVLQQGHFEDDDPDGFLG


Target: T1, FH-ER-SAMD1 (FLAG-HA-ER-tagged SAMD1)
Assay: affinity purification with mass spectrometry; FLAG IP from dialysed, benzonase-treated nuclear extract of PaTu8988t SAMD1 KO cells stably expressing FH-ER-SAMD1 or FH-ER (control), 200 nM 4-OHT for 24 h; TAP buffer, 3 h at 4 °C; LC-MS on beads

binding | Molecule
binds | SKP1, endogenous in PaTu8988t cells (from UniProt P63208 1-163)
binds | NEDD8, endogenous in PaTu8988t cells (from UniProt Q15843 1-76)
binds | FBXO11, endogenous in PaTu8988t cells (protein, UniProt Q86XK2 1-927) MNSVRAANRRPRRVSRPRPVQQQQQQPPQQPPPQPPQQQPPQQQPPPPPQQQQQQQPPPPPPPPPPLPQERNNVGERDDDVPADMVAEESGPGAQNSPYQLRRKTLLPKRTACPTKNSMEGASTSTTENFGHRAKRARVSGKSQDLSAAPAEQYLQEKLPDEVVLKIFSYLLEQDLCRAACVCKRFSELANDPILWKRLYMEVFEYTRPMMHPEPGKFYQINPEEYEHPNPWKESFQQLYKGAHVKPGFAEHFYSNPARYKGRENMLYYDTIEDALGGVQEAHFDGLIFVHSGIYTDEWIYIESPITMIGAAPGKVADKVIIENTRDSTFVFMEGSEDAYVGYMTIRFNPDDKSAQHHNAHHCLEITVNCSPIIDHCIIRSTCTVGSAVCVSGQGACPTIKHCNISDCENVGLYITDHAQGIYEDNEISNNALAGIWVKNHGNPIIRRNHIHHGRDVGVFTFDHGMGYFESCNIHRNRIAGFEVKAYANPTVVRCEIHHGQTGGIYVHEKGRGQFIENKIYANNFAGVWITSNSDPTIRGNSIFNGNQGGVYIFGDGRGLIEGNDIYGNALAGIQIRTNSCPIVRHNKIHDGQHGGIYVHEKGQGVIEENEVYSNTLAGVWVTTGSTPVLRRNRIHSGKQVGVYFYDNGHGVLEDNDIYNHMYSGVQIRTGSNPKIRRNKIWGGQNGGILVYNSGLGCIEDNEIFDNAMAGVWIKTDSNPTLRRNKIHDGRDGGICIFNGGRGLLEENDIFRNAQAGVLISTNSHPILRKNRIFDGFAAGIEITNHATATLEGNQIFNNRFGGLFLASGVNVTMKDNKIMNNQDAIEKAVSRGQCLYKISSYTSYPMHDFYRCHTCNTTDRNAICVNCIKKCHQGHDVEFIRHDRFFCDCGAGTLSNPCTLAGEPTHDTDTLYDSAPPIESNTLQHN
binds | L3MBTL3, endogenous in PaTu8988t cells (protein, UniProt Q96JM7 1-780) MTESASSTSGQEFDVFSVMDWKDGVGTLPGSDLKFRVNEFGALEVITDENEMENVKKATATTTWMVPTAQEAPTSPPSSRPVFPPAYWTSPPGCPTVFSEKTGMPFRLKDPVKVEGLQFCENCCQYGNVDECLSGGNYCSQNCARHIKDKDQKEERDVEEDNEEEDPKCSRKKKPKLSLKADTKEDGEERDDEMENKQDVRILRGSQRARRKRRGDSAVLKQGLPPKGKKAWCWASYLEEEKAVAVPAKLFKEHQSFPYNKNGFKVGMKLEGVDPEHQSVYCVLTVAEVCGYRIKLHFDGYSDCYDFWVNADALDIHPVGWCEKTGHKLHPPKGYKEEEFNWQTYLKTCKAQAAPKSLFENQNITVIPSGFRVGMKLEAVDKKNPSFICVATVTDMVDNRFLVHFDNWDESYDYWCEASSPHIHPVGWCKEHRRTLITPPGYPNVKHFSWDKYLEETNSLPAPARAFKVKPPHGFQKKMKLEVVDKRNPMFIRVATVADTDDHRVKVHFDGWNNCYDYWIDADSPDIHPVGWCSKTGHPLQPPLSPLELMEASEHGGCSTPGCKGIGHFKRARHLGPHSAANCPYSEINLNKDRIFPDRLSGEMPPASPSFPRNKRTDANESSSSPEIRDQHADDVKEDFEERTESEMRTSHEARGAREEPTVQQAQRRSAVFLSFKSPIPCLPLRWEQQSKLLPTVAGIPASKVSKWSTDEVSEFIQSLPGCEEHGKVFKDEQIDGEAFLLMTQTDIVKIMSIKLGPALKIFNSILMFKAAEKNSHNEL
binds | L3MBTL4, endogenous in PaTu8988t cells (protein, UniProt Q8NA19 1-623) MKQPNRKRKLNMDSKERLDQDGRLEQAEEEKKPKDSTTPLSHVPSAAAQGAWSWEWYLKEQKAVAAPVELFSKDQSFPEHENGFQIGMRLEGIDPRHPSVFCVLSVAEVCGYRLRLHFDGYLSCYDFWTNAGSPDIHPVGWCEKTKHELHIPKGYRKDKFVWMDYLKACKLQNAPKKLFRNRSPNGPMSKEFQVGMKLEAVDRKNPSLVCVATIADIVEDRLLVHFDNWDDSYDYWCDVNSPYVQPVGWCQENGRTLIAPQGYPNPENFSWTEYLEATQTNAVPAKVFKMRLPHGFLPNMKLEVVDKRNPRLIRVATIVDVDDQRVKVHFDGWDHKYDYWVEADSPDIHPIGWCDVTGHPLEVPQRTNDLKILPGQAVCPTPGCRGIGHIRGPRYSGHHSAFGCPYSDMNLKKEATLHDRLREQTQANLESDSSHSKSKSLCSLNFNGKHEKVNSQPRLVQQAKCLKIKGKEDIDLDNLFRVLVLHPRGLEYSVEQAQQVLHQSVSMSTVSAHPFRDLPLGREQHCKLLPGVADIRASQVARWTVDEVAEFVQSLLGCEEHAKCFKKEQIDGKAFLLLTQTDIVKVMKIKLGPALKIYNSILMFRHSQELPEEDIASGQEVRG
